Laboratory results published in the supplement of paper PMC12819154, “High-throughput peptide-centric local stability assay extends protein–ligand identification to membrane proteins, tissues and bacteria” (Nature Structural & Molecular Biology, 2025).
The other results are listed elsewhere or left out. Most values lie at the level of the controls, where differences are scatter.

Protein sequences, listed by entry. Tags and fused reporters are not part of them. Lines headed by an entry give the natural chain unless they say otherwise; changes in a name come on top.
UniProt Q9UK97: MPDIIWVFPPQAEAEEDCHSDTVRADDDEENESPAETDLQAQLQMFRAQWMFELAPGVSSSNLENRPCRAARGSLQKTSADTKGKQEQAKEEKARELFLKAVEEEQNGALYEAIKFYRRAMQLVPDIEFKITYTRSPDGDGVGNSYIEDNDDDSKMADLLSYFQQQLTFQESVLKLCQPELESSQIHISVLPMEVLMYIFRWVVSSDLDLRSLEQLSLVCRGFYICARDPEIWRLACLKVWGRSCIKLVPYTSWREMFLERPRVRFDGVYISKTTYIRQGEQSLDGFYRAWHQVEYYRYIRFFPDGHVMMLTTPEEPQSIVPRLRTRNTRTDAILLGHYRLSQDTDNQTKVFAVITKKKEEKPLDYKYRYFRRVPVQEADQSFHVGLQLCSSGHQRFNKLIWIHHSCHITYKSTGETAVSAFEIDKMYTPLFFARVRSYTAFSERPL
UniProt Q9Y224: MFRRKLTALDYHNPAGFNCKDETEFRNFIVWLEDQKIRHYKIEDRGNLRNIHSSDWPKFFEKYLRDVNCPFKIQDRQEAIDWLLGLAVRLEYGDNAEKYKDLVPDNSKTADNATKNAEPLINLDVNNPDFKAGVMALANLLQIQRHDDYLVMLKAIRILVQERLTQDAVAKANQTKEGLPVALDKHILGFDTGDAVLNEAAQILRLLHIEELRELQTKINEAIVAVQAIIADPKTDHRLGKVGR
UniProt Q9UKB3: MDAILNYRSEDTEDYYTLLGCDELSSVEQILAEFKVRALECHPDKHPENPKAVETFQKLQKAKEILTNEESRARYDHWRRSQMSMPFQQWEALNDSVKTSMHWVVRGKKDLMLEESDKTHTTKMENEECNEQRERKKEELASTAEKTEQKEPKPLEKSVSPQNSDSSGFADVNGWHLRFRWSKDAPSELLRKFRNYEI
UniProt Q9Y2T2: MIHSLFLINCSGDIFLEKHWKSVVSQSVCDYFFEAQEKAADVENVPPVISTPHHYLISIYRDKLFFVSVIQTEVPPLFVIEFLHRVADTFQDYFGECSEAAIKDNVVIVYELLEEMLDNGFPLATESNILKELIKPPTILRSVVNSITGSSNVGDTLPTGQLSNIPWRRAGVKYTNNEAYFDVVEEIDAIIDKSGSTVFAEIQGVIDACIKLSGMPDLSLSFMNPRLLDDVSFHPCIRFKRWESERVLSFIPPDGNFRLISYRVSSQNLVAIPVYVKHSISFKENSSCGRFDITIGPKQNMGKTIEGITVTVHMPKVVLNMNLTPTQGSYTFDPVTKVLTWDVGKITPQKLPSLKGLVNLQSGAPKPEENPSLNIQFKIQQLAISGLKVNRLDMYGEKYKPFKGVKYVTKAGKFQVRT
UniProt Q9ULZ2: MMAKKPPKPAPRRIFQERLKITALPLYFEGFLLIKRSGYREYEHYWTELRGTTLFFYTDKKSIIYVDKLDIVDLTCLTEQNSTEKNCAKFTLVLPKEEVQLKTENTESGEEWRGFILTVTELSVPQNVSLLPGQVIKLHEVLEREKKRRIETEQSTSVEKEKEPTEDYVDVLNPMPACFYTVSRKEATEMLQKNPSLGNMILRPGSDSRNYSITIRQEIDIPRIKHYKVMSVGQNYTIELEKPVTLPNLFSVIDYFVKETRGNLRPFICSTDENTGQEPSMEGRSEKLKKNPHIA
UniProt Q9ULD4: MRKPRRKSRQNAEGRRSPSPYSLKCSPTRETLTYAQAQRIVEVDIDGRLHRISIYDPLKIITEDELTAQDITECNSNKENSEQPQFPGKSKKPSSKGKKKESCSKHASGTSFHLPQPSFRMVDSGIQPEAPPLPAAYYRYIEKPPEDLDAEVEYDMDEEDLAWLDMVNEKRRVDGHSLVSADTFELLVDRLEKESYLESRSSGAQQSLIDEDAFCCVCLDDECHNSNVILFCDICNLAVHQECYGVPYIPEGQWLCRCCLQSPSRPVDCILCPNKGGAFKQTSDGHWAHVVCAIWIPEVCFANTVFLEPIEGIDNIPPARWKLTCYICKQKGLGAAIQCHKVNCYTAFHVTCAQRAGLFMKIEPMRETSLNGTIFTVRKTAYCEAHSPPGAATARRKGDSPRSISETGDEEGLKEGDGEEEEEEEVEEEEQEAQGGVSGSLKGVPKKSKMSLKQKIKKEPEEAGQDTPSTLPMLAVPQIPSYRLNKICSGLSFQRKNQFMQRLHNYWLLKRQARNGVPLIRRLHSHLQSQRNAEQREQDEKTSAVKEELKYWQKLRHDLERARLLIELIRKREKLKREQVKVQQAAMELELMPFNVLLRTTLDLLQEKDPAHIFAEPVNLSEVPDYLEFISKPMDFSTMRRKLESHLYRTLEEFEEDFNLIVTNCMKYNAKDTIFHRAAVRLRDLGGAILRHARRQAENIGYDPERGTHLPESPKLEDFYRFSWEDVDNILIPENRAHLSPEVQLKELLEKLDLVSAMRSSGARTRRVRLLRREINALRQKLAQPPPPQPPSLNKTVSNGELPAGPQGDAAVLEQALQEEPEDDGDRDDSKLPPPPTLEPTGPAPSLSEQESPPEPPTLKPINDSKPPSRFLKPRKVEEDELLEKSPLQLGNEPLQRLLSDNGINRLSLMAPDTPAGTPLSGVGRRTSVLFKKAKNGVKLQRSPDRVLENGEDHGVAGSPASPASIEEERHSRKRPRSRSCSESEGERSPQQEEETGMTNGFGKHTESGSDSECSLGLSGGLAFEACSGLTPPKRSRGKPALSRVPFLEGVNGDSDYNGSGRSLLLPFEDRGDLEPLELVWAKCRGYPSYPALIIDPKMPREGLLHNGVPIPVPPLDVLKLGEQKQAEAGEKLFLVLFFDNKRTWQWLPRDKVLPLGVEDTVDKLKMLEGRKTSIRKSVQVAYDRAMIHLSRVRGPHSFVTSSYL
UniProt Q9UPU7: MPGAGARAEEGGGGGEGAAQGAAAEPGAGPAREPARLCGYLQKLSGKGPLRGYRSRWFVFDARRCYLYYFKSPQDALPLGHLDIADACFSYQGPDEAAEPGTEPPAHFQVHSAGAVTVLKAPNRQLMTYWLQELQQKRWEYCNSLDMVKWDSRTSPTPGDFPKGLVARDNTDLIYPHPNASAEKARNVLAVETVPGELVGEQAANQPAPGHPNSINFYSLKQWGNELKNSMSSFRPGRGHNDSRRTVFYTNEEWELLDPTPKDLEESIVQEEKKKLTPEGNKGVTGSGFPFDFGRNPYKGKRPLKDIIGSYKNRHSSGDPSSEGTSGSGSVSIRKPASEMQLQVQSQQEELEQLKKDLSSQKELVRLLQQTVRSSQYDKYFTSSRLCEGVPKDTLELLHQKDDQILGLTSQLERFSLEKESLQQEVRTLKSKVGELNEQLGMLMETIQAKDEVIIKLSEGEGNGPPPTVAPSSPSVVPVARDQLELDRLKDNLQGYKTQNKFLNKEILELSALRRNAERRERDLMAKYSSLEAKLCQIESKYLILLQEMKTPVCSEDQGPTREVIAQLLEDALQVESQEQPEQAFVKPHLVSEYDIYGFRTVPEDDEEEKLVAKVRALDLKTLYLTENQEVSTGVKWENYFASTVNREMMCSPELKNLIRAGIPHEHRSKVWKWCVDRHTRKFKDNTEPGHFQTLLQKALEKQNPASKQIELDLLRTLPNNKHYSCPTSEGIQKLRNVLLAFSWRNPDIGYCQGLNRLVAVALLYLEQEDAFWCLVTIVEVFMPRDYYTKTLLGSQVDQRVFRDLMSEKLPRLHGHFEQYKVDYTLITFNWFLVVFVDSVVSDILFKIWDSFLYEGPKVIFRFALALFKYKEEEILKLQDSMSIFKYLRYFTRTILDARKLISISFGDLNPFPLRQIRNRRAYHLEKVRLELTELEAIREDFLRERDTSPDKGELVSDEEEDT
UniProt Q9Y2U9: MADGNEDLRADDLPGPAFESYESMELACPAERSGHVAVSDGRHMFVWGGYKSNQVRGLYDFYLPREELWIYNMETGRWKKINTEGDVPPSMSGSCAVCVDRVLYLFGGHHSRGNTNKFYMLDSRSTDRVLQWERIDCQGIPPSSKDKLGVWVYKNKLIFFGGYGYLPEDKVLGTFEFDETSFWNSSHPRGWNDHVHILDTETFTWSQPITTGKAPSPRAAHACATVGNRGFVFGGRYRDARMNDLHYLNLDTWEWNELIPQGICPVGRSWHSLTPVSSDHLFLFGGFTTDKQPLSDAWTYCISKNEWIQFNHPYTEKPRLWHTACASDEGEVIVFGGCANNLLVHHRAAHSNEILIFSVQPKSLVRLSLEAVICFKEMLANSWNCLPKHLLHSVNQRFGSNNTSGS
UniProt Q9Y2W2: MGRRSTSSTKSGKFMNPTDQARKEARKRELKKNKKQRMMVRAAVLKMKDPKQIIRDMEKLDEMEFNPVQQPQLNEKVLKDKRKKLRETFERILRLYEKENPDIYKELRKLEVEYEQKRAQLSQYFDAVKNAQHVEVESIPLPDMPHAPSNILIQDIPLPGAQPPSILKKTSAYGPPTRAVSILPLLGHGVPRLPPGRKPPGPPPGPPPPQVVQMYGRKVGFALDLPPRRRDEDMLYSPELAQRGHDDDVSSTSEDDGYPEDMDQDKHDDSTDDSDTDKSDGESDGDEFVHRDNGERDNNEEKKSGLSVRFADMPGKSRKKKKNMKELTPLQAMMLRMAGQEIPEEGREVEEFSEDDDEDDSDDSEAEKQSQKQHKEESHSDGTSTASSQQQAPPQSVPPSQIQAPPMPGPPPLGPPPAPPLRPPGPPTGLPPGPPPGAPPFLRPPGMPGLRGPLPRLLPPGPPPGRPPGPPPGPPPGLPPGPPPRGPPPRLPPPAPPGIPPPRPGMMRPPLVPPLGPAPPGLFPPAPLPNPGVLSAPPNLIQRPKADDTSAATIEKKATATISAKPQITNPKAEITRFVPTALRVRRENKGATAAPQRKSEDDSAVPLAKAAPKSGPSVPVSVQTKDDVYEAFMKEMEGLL
UniProt Q9UQE7: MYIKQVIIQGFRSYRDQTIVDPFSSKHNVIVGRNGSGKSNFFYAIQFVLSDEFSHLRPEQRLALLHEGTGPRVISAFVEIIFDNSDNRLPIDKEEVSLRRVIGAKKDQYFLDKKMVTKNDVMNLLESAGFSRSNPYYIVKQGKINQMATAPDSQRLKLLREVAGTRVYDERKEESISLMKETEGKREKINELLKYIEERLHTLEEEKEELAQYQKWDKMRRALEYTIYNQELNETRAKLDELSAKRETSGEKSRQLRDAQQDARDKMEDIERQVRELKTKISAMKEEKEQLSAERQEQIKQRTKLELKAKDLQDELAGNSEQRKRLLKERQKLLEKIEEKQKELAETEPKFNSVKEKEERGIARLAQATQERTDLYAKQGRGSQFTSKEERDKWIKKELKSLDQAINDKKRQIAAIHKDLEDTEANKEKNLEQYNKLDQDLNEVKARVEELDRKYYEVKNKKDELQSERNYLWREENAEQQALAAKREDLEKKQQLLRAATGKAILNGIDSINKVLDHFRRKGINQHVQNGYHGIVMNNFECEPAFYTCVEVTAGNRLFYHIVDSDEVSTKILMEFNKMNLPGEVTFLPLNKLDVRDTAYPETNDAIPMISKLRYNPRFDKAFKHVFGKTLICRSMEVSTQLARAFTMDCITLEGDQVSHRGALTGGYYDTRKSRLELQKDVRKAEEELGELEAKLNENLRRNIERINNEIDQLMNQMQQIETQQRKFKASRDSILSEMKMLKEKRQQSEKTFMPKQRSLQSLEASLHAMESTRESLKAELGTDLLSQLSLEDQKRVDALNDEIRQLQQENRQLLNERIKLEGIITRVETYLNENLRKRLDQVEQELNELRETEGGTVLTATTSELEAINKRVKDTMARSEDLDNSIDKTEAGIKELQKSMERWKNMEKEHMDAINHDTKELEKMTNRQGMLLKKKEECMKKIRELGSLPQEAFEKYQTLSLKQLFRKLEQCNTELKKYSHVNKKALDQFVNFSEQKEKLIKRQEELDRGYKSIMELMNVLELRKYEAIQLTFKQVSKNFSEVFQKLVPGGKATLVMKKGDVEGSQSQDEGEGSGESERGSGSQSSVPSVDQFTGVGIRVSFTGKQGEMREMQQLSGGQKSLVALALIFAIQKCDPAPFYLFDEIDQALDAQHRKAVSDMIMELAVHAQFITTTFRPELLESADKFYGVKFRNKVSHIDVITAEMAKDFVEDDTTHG
UniProt Q9UPY6: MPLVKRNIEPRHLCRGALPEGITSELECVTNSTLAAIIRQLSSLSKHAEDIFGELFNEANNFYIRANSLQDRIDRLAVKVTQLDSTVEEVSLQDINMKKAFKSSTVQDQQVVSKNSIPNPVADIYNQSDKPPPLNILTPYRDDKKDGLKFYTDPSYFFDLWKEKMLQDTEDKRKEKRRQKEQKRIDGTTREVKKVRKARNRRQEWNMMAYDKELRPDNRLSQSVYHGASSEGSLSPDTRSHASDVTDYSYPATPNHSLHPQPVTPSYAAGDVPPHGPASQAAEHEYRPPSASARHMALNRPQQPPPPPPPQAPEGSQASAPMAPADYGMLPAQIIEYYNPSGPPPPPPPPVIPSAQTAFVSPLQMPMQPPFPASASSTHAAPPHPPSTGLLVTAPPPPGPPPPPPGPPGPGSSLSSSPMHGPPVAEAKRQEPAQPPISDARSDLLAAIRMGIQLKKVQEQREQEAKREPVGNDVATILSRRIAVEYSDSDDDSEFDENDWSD

compound: CN[C@@H]1C[C@H]2O[C@@](C)([C@@H]1OC)n1c3ccccc3c3c4c(c5c6ccccc6n2c5c31)C(=O)NC4 [staurosporine]; experiment: log2 fold change of tryptic peptide abundance, ligand vs vehicle (limited proteolysis) (log2 ratio); higher = more trypsin-susceptible (destabilized); conditions: ligand concentration: 20 uM; sample: K562 cleared lysate; digestion: 4 min, 22 C (HT-PELSA RT4min, Orbitrap Astral)

Target | log2 fold change
RALY (peptide sequence: LQASNVTNKNDPK, peptide start residue: 5) (UniProt Q9UKM9) | -0.206
RPL26L1 (peptide sequence: HFNAPSHVR, peptide start residue: 18) (UniProt Q9UNX3) | 0.0972
CARD8 (peptide sequence: ECPEKSSSSEEELPR, peptide start residue: 5) (UniProt Q9Y2G2) | -0.66
FBXO9 (peptide sequence: RAMQLVPDIEFK, peptide start residue: 119) (UniProt Q9UK97) | -0.242
UniProt Q9Y224 (peptide sequence: HDDYLVMLK, peptide start residue: 146) | 0.0595
PIN4 (peptide sequence: IMEAMEK, peptide start residue: 51) (UniProt Q9Y237) | -0.281
FZR1 (peptide sequence: GLFTYSLSTK, peptide start residue: 126) (UniProt Q9UM11) | -0.161
SNX6 (peptide sequence: DVDDFFEHER, peptide start residue: 205) (UniProt Q9UNH7) | -0.153
DNAJC12 (peptide sequence: DLMLEESDKTHTTK, peptide start residue: 110) (UniProt Q9UKB3) | -0.161
POLDIP2 (peptide sequence: VLETVGVFEVPK, peptide start residue: 61) (UniProt Q9Y2S7) | -0.249
FNDC3A (peptide sequence: DKMSSPPSSPQK, peptide start residue: 199) (UniProt Q9Y2H6) | -0.776
AP3M1 (peptide sequence: LLDDVSFHPCIR, peptide start residue: 227) (UniProt Q9Y2T2) | -0.0885
VPS4A (peptide sequence: FSEDFGQES, peptide start residue: 429) (UniProt Q9UN37) | -0.348
STAP1 (peptide sequence: NYSITIR, peptide start residue: 210) (UniProt Q9ULZ2) | -0.0587
UniProt Q9ULD4 (peptide sequence: SLLLPFEDR, peptide start residue: 1063) | -0.287
ZC3H4 (peptide sequence: SQLQQFSHIK, peptide start residue: 954) (UniProt Q9UPT8) | -0.339
TBC1D2B (peptide sequence: EILELSALR, peptide start residue: 506) (UniProt Q9UPU7) | -0.157
C15orf41 (peptide sequence: HHTSEAIESYYQR, peptide start residue: 59) (UniProt Q9Y2V0) | 0.704
KLHDC2 (peptide sequence: SGHVAVSDGR, peptide start residue: 33) (UniProt Q9Y2U9) | 0.317
WBP11 (peptide sequence: DNGERDNNEEKK, peptide start residue: 292) (UniProt Q9Y2W2) | -0.601
SMC3 (peptide sequence: VEELDRK, peptide start residue: 448) (UniProt Q9UQE7) | 0.311
UniProt Q9UPY6 (peptide sequence: FYTDPSYFFDLWKEK, peptide start residue: 149) | -0.102
EXO1 (peptide sequence: SHSWDDKTCQK, peptide start residue: 353) (UniProt Q9UQ84) | -0.623
ACAD8 (peptide sequence: VAFDFAAR, peptide start residue: 51) (UniProt Q9UKU7) | -0.164
TTC7A (peptide sequence: LLSEAFVIK, peptide start residue: 164) (UniProt Q9ULT0) | -0.142
EXOC6B (peptide sequence: EIESTDTACIGPTLR, peptide start residue: 24) (UniProt Q9Y2D4) | -0.746
DIS3 (peptide sequence: IHEEFSEHALLR, peptide start residue: 678) (UniProt Q9Y2L1) | 0.604
HPS5 (peptide sequence: VSHLSLISVER, peptide start residue: 349) (UniProt Q9UPZ3) | 0.65
UniProt Q9Y333 (peptide sequence: MLFYSFFK, peptide start residue: 1) | 0.197

Shown as comma-separated lines: entries from further up
Target,log2 fold change
"UniProt Q9Y224 (peptide sequence: HDDYLVMLK, peptide start residue: 146)",0.0595
"EXO1 (peptide sequence: SHSWDDKTCQK, peptide start residue: 353) (UniProt Q9UQ84)",-0.623
